Values from PubChem BioAssay AID504791 (Drosophila RNAi Screening Center, 2011).
The deposit covers about 23,000 reagents; below is a random part of those with a known target gene and a result. Of all reagents, 199 (0.86%) got an active call. 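Plate-scaled ratios behind the calls are not deposited; printed light signals are raw; many rows marked increased or decreased are still called inactive.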 Entries without a mark were called inactive. Names joined by + are all predicted targets of the reagent. The record does not give: the direction of the score.

Purpose: 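Genes of the fly required for silencing by miRNA, siRNA or endo-siRNA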 (primary screen)
Cell system: Drosophila S2-derived reporter cells
Reagent: long dsRNA against Drosophila genes, about 150-250 ng dsRNA per well (siRNA assay); about 80-120 ng (miRNA assay)
Timing: about 5 days (siRNA assay); about 4 days (miRNA assay)
Challenge: copper sulfate induction of reporters: 25 µM (siRNA assay); 200 mM stated (miRNA assay), 1-2 days before reading
Detection: 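Dual luciferase assay: Renilla to firefly signal ratio in each well, scaled to the mean ratio of its plate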
Rule for the call: 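a well was a first-pass pick when its plate-scaled ratio rose above 1.5 (siRNA assay) or 1.6 (miRNA assay), or dropped below 0.6; a gene counted only if two separate dsRNAs agreed on retest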

| target gene | amplicon | stable siRNA reporter change | miRNA reporter change | stable assay Renilla, run 1 (luminescence) | stable assay firefly, run 1 (luminescence) |
| --- | --- | --- | --- | --- | --- |
| dgrn (degringolade) | DRSC12154 | – | – | 4644 | 3.70e5 |
| Nox (NADPH oxidase) | DRSC06596 | – | – | 6688 | 3.58e5 |
| Nox (NADPH oxidase) | DRSC06857 | – | – | 5534 | 2.69e5 |
| CG6550 | DRSC07001 | – | – | 12694 | 6.66e5 |
| MCTS1 (Malignant T cell amplified sequence 1) | DRSC18393 | – | – | 7874 | 3.97e5 |
| CG10887 | DRSC14277 | – | – | 4408 | 4.83e5 |
| CG12640 | DRSC17847 | – | – | 4856 | 4.07e5 |
| CG13215 | DRSC06337 | – | – | 7092 | 5.23e5 |
| CG1146 | DRSC08189 | – | – | 9422 | 3.15e5 |
| alpha-Est7 (alpha-Esterase-7) | DRSC12619 | – | – | 6043 | 3.97e5 |
| CG33217 | DRSC22907 | – | – | 4752 | 5.21e5 |
| CG30416 | DRSC04565 | – | – | 6603 | 3.81e5 |
| CG16970 (retired record) | DRSC01310 | – | – | 5495 | 4.21e5 |
| CG16970 (retired record) | DRSC02549 | – | – | 8822 | 5.06e5 |
| Map205 (Microtubule-associated protein 205) | DRSC16732 | – | – | 10019 | 4.61e5 |
| CG11279 | DRSC09837 | – | – | 5891 | 4.80e5 |
| st (scarlet) | DRSC11399 | – | – | 10767 | 4.88e5 |
| CG12419 (retired record) | DRSC14513 | – | – | 6522 | 4.84e5 |
| CG30087 | DRSC21677 | – | – | 9231 | 4.99e5 |
| CG1231 | DRSC08267 | – | reporter ratio lowered past the hit cutoff | 4627 | 3.25e5 |
| Eig71Ea (Ecdysone-induced gene 71Ea) | DRSC11148 | – | – | 7386 | 4.30e5 |
| Hsp60A (Heat shock protein 60A) | DRSC20254 | – | – | 7819 | 7.07e5 |
| CG32095 | DRSC22615 | – | – | 2572 | 2.70e5 |
| CG12133 | DRSC06108 | – | – | 6912 | 4.99e5 |
| eIF3b (eukaryotic translation initiation factor 3 subunit b) | DRSC06900 | – | – | 4431 | 3.16e5 |
| CG7806 | DRSC03071 | – | – | 53038 | 4.52e5 |
| SMSr (Sphingomyelin synthase related) | DRSC10998 | – | – | 7677 | 4.10e5 |
| SMSr (Sphingomyelin synthase related) | DRSC10999 | – | – | 7202 | 4.63e5 |
| lncRNA:roX2 (long non-coding RNA on the X 2) | DRSC22237 | – | – | 8695 | 5.41e5 |
| CG13001 | DRSC19520 | – | – | 6151 | 4.88e5 |
| CG13001 | DRSC22443 | – | – | 5379 | 5.46e5 |
| Lrpprc2 (Leucine-rich pentatricopeptide repeat containing 2) | DRSC18605 | – | – | 7553 | 4.85e5 |
| CG4074 | DRSC11752 | – | – | 7306 | 3.82e5 |
| CG1572 | DRSC19686 | – | reporter ratio lowered past the hit cutoff | 8642 | 6.11e5 |
| ng3 (new glue 3) | DRSC18804 | – | – | 5772 | 2.94e5 |
| Sp7 (Serine protease 7) | DRSC15461 | – | – | 6542 | 4.35e5 |
| CG14740 | DRSC14960 | – | – | 10007 | 4.73e5 |
| Ate1 (Arginyltransferase 1) | DRSC05925 | reporter ratio raised past the hit cutoff | – | 23317 | 4.27e5 |
| tilB (touch insensitive larva B) | DRSC20634 | – | – | 5735 | 4.25e5 |
| NdufA3 (NADH:ubiquinone oxidoreductase subunit A3) | DRSC18431 | – | – | 5543 | 6.96e5 |
| CG1428 | DRSC03708 | – | – | 6666 | 3.84e5 |
| lsn (larsen) | DRSC16081 | – | – | 6758 | 3.80e5 |
| da | DRSC03517 | – | – | 6563 | 4.88e5 |
| Vsx2 (Visual system homeobox 2) | DRSC17397 | – | – | 3232 | 3.42e5 |
| Vsx2 (Visual system homeobox 2) | DRSC18087 | – | reporter ratio raised past the hit cutoff | 4931 | 2.51e5 |
| Vsx2 (Visual system homeobox 2) | DRSC18088 | – | – | 5195 | 4.21e5 |
| Vsx2 (Visual system homeobox 2) | DRSC18089 | – | – | 4503 | 3.06e5 |
| Vsx2 (Visual system homeobox 2) | DRSC23089 | – | – | 3944 | 2.73e5 |
| Vsx2 (Visual system homeobox 2) | DRSC23273 | – | – | 3347 | 3.02e5 |
| CG13901 | DRSC08371 | – | – | 4848 | 3.41e5 |
| CG13038 | DRSC09919 | – | – | 7390 | 4.42e5 |

Next part, starting with the last 4 of the part before.
| target gene | amplicon | stable siRNA reporter change | miRNA reporter change | stable assay Renilla, run 1 (luminescence) | stable assay firefly, run 1 (luminescence) |
| --- | --- | --- | --- | --- | --- |
| Vsx2 (Visual system homeobox 2) | DRSC23089 | – | – | 3944 | 2.73e5 |
| Vsx2 (Visual system homeobox 2) | DRSC23273 | – | – | 3347 | 3.02e5 |
| CG13901 | DRSC08371 | – | – | 4848 | 3.41e5 |
| CG13038 | DRSC09919 | – | – | 7390 | 4.42e5 |
| CG14352 | DRSC00382 | – | – | 8387 | 5.37e5 |
| CG15177 | DRSC12557 | – | – | 7265 | 4.37e5 |
| Tsp42Ea (Tetraspanin 42Ea) | DRSC04982 | – | – | 6452 | 4.98e5 |
| Tsp42Ea (Tetraspanin 42Ea) | DRSC06792 | – | – | 6564 | 4.57e5 |
| LManIV (Lysosomal alpha-mannosidase IV) | DRSC03222 | – | – | 6863 | 4.82e5 |
| Lamp1 | DRSC03727 | – | – | 6767 | 5.21e5 |
| CSN6 (COP9 signalosome subunit 6) | DRSC16593 | – | – | 4167 | 3.28e5 |
| RpL4 (Ribosomal protein L4) | DRSC16833 | – | – | 7426 | 3.26e5 |
| rogdi | DRSC10906 | – | – | 8386 | 3.70e5 |
| CG3708 | DRSC18646 | – | – | 6270 | 5.18e5 |
| CG13516 | DRSC04159 | – | – | 6208 | 3.94e5 |
| mRpS11 (mitochondrial ribosomal protein S11) | DRSC15732 | – | – | 6475 | 4.57e5 |
| CG17477 | DRSC15239 | – | – | 7508 | 4.25e5 |
| klu (klumpfuss) | DRSC11357 | – | – | 4963 | 3.27e5 |
| TTLL4A (Tubulin tyrosine ligase-like 4A) | DRSC02528 | – | – | 29868 | 1.38e6 |
| Blos2 | DRSC10147 | – | – | 6726 | 3.93e5 |
| CG11566 (retired record) + stg1 | DRSC20473 | – | – | 3823 | 2.07e5 |
| CG11566 (retired record) + stg1 | DRSC20481 | – | – | 4863 | 4.07e5 |
| CG11566 (retired record) + stg1 | DRSC20482 | – | – | 6207 | 3.88e5 |
| CG11566 (retired record) + stg1 | DRSC20483 | – | – | 4535 | 3.14e5 |
| CG4294 | DRSC04460 | reporter ratio raised past the hit cutoff (active) | – | 21637 | 3.94e5 |
| CG14185 | DRSC10184 | – | – | 7808 | 3.37e5 |
| CG12644 (retired record) | DRSC17850 | – | – | 5067 | 4.22e5 |
| Topors (Topoisomerase I-interacting protein) | DRSC06531 | – | – | 8518 | 4.78e5 |
| CG17738 | DRSC15257 | – | – | 6082 | 3.44e5 |
| CG31816 | DRSC01547 | – | – | 6082 | 5.06e5 |
| CG16898 | DRSC06635 | – | – | 6176 | 2.89e5 |
| CG7714 | DRSC16300 | – | – | 7334 | 2.85e5 |
| CG32086 | DRSC10586 | – | – | 5975 | 3.42e5 |
| TwdlF (TweedleF) | DRSC12225 | – | – | 7326 | 2.99e5 |
| Prp18 | DRSC16802 | – | – | 9296 | 3.81e5 |
| CG10996 | DRSC19363 | – | – | 6239 | 5.47e5 |
| TBC1D5 (TBC1 domain family member 5) | DRSC16421 | – | – | 8888 | 6.06e5 |
| fz3 (frizzled 3) | DRSC18779 | – | – | 5547 | 3.27e5 |
| CG17684 | DRSC07724 | – | – | 6423 | 4.81e5 |
| CG17684 | DRSC21166 | – | – | 4907 | 2.91e5 |
| Lar (Leukocyte-antigen-related-like) | DRSC01707 | – | – | 6267 | 3.76e5 |
| Lar (Leukocyte-antigen-related-like) | DRSC03361 | – | – | 78810 | 1.82e6 |
| CG15022 | DRSC08476 | – | – | 8665 | 4.36e5 |
| CG15708 | DRSC06579 | – | – | 6636 | 3.52e5 |
| CG11529 | DRSC09839 | – | – | 6835 | 3.41e5 |
| Phf5a (PHD finger protein 5a) | DRSC03261 | reporter ratio lowered past the hit cutoff (active) | reporter ratio lowered past the hit cutoff | 7306 | 8.00e5 |
| Pfdn4 (Prefoldin 4) | DRSC09761 | – | – | 5867 | 3.13e5 |
| Snx17 (Sorting nexin 17) | DRSC02884 | – | reporter ratio raised past the hit cutoff | 12780 | 2.61e5 |
| CG3597 | DRSC00617 | – | – | 7554 | 3.99e5 |
| primo-2 + primo-1 | DRSC16511 | – | – | 8018 | 4.27e5 |
| Syt1 (Synaptotagmin 1) | DRSC00156 | – | – | 5170 | 4.00e5 |
| Syt1 (Synaptotagmin 1) | DRSC00157 | – | – | 3031 | 3.46e5 |
| Syt1 (Synaptotagmin 1) | DRSC00158 | – | – | 5087 | 3.17e5 |
| Syt1 (Synaptotagmin 1) | DRSC00840 | – | – | 9099 | 2.25e5 |
| Syt1 (Synaptotagmin 1) | DRSC22077 | – | – | 9114 | 5.67e5 |
| Cyp313a5 (Cytochrome P450 313a5) | DRSC16628 | – | – | 6436 | 4.00e5 |
| CG13258 | DRSC02244 | – | – | 7527 | 4.06e5 |
| CG14631 | DRSC17792 | – | – | 5998 | 4.61e5 |
| CG14631 | DRSC17941 | – | – | 6507 | 2.92e5 |
